Some of the results follow.

Amino acid sequences for entries named in this document (tags omitted). A change or cut given only in a name is not applied to a line headed by its entry.
UniProt O75528: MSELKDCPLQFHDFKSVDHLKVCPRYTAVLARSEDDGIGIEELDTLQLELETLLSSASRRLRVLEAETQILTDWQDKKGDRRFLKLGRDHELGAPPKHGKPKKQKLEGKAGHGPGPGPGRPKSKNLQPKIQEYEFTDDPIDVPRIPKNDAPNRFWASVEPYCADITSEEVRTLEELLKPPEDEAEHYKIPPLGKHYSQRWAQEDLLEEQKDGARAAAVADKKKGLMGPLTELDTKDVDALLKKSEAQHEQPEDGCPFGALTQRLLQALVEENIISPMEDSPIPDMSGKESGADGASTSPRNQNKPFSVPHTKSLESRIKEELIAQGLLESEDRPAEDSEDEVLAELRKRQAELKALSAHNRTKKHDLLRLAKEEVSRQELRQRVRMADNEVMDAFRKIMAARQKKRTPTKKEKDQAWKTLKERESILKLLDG
UniProt P37802: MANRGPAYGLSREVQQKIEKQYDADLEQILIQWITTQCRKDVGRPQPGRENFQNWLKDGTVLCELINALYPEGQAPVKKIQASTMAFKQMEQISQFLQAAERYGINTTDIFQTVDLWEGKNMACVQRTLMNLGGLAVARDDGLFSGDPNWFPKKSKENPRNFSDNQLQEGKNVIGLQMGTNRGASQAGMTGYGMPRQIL
UniProt Q15560: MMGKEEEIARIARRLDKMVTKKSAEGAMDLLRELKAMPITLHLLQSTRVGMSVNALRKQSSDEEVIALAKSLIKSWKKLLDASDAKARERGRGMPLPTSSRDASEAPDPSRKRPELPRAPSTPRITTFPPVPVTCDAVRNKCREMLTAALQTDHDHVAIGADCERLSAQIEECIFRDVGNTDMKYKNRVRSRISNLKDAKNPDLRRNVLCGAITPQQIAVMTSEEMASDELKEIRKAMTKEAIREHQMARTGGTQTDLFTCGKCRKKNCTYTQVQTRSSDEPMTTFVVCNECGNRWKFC
UniProt Q92609: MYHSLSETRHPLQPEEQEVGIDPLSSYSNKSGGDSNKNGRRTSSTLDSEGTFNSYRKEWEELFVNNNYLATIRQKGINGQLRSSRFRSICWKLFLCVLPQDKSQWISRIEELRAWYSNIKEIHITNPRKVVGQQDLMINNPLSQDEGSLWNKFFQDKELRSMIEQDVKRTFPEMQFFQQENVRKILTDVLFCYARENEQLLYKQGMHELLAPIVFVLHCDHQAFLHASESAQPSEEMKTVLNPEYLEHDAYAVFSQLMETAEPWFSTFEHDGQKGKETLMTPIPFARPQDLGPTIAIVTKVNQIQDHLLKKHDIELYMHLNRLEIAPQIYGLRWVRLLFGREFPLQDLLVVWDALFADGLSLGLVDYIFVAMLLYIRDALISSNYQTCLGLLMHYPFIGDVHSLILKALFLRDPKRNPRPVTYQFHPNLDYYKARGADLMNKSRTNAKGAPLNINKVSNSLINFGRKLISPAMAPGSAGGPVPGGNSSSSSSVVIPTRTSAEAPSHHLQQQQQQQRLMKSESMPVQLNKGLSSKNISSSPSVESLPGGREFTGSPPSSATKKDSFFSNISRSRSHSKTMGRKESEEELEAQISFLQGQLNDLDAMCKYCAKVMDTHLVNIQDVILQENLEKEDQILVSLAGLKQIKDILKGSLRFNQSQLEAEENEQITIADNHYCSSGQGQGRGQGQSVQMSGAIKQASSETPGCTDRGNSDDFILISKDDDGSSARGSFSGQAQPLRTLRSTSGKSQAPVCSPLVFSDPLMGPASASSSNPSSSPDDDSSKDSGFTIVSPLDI
UniProt Q86TI0: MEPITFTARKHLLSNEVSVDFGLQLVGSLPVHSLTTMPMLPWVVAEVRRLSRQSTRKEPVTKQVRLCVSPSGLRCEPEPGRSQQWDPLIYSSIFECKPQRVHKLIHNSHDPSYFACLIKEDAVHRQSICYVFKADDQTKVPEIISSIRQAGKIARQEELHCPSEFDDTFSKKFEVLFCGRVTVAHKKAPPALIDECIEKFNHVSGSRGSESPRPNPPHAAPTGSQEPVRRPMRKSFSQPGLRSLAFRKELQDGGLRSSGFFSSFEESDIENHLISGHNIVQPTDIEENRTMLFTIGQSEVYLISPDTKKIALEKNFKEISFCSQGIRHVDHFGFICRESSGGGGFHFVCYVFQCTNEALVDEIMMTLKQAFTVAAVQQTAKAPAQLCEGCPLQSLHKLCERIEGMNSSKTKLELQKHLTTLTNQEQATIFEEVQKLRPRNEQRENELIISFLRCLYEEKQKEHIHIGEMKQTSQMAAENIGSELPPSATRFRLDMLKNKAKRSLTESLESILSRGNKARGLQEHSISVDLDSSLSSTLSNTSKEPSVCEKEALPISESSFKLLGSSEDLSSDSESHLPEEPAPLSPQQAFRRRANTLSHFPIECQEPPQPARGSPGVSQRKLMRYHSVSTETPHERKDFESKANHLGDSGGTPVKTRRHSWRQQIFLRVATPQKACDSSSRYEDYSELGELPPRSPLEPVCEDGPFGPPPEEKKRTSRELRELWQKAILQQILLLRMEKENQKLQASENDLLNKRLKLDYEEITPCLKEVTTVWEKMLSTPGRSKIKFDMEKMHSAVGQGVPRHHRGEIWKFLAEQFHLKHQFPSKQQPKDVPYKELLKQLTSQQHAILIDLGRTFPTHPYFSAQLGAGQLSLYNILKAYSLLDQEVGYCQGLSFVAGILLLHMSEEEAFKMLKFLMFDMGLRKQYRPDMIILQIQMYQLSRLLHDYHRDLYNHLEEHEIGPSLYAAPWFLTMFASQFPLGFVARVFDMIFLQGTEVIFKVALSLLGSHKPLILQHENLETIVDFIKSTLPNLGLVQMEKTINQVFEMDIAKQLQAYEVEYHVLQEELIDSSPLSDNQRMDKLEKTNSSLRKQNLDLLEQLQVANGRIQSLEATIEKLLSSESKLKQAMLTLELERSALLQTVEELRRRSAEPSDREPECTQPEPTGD
UniProt Q6P1X5, whole entry, looked up: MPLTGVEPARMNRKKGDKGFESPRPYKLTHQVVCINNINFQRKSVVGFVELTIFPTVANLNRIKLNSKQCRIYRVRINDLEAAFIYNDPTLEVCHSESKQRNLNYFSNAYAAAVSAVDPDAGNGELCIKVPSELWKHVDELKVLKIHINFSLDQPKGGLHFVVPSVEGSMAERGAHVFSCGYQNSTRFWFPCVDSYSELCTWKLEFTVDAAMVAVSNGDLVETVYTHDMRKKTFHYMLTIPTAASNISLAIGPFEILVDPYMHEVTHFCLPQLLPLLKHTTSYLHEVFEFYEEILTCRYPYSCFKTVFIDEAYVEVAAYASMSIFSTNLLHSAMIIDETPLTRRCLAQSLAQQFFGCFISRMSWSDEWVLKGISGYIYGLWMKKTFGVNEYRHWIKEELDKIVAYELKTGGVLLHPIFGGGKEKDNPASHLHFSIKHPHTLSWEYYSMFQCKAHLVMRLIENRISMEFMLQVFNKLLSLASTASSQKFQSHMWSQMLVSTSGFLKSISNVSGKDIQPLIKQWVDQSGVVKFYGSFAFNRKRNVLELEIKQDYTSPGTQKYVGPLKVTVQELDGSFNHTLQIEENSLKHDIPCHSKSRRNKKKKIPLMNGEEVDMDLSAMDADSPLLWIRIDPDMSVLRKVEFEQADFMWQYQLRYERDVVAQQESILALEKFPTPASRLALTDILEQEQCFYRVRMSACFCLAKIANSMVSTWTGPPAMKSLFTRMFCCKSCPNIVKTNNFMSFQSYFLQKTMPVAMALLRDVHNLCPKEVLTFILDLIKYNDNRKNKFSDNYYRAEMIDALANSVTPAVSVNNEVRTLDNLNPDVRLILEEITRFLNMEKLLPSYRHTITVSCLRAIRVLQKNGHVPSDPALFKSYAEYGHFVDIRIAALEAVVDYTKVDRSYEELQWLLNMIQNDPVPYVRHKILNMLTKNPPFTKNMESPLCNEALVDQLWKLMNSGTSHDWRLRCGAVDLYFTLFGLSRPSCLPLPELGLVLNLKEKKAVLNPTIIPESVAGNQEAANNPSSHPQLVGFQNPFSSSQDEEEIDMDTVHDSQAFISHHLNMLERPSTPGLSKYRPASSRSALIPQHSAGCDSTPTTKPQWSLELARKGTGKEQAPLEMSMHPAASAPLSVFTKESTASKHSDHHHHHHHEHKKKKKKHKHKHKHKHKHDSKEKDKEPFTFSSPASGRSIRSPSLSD
UniProt Q9C0D5: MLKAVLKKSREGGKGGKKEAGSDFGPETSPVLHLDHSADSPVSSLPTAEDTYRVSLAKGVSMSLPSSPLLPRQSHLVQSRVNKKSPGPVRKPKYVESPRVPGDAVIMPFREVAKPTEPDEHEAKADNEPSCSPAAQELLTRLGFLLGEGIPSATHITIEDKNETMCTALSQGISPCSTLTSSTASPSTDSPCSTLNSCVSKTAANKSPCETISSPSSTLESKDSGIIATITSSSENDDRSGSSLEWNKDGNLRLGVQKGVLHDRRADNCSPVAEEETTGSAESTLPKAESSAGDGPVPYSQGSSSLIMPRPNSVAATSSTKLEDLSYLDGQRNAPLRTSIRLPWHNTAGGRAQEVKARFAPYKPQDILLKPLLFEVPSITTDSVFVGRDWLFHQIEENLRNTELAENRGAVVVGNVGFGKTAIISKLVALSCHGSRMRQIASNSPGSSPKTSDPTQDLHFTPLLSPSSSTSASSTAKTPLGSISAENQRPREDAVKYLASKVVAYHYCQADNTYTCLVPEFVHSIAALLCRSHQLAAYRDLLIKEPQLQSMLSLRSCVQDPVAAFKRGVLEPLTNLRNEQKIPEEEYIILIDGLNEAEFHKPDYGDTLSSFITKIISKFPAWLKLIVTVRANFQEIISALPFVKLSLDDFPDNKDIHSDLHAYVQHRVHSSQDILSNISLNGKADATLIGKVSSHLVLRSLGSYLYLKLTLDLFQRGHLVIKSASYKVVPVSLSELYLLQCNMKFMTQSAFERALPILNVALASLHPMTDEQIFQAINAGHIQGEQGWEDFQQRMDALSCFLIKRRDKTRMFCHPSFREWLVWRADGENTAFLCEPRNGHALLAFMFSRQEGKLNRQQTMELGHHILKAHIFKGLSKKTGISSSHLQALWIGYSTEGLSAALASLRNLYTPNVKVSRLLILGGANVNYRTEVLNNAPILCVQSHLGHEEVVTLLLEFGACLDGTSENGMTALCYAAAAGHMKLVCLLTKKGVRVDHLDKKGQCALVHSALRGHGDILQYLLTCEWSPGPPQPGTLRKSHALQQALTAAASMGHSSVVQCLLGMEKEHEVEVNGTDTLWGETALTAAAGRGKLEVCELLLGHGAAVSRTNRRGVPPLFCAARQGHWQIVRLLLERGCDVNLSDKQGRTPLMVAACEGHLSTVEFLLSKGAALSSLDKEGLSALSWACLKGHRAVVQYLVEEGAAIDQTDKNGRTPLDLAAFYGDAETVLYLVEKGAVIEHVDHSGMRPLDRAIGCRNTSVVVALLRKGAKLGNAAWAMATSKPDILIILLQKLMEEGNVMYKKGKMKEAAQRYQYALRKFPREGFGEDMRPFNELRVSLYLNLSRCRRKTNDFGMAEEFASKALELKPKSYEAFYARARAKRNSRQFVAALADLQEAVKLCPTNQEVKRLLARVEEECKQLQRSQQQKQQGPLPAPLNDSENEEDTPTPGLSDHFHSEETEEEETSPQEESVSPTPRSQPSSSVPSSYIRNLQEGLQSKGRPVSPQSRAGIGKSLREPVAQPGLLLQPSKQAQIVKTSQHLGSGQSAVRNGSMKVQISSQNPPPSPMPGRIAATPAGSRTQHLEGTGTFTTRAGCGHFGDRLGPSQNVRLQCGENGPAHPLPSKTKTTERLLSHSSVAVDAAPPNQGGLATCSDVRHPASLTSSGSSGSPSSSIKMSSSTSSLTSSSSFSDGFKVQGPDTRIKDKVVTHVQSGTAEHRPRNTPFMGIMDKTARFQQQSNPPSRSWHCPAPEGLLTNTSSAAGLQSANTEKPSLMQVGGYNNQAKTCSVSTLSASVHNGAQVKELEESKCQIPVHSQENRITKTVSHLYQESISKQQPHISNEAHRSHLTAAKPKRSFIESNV
UniProt Q9Y4P3: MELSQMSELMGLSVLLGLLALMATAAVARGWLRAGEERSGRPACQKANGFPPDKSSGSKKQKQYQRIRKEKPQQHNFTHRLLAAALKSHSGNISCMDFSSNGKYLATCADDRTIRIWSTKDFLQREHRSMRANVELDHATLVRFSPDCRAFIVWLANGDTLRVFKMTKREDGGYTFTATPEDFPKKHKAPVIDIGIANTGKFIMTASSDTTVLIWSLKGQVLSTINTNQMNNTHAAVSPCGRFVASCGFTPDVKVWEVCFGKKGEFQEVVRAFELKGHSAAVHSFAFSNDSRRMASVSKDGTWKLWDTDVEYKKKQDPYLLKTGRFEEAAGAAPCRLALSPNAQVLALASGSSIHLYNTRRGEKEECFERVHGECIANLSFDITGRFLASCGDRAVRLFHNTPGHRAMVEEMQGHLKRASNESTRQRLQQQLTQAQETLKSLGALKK

Compound in this test: Cc1cc(ccc1-c1ccccc1)C(=O)N1CCCN(CC1)C(=O)CCl [compound 10]
Kind of test: probe-labelled cysteine peptide fold change vs DMSO (competition) (log2 fold change); higher = less target engagement (more negative = stronger competition). The note with it: THP-1, incubation time: 4 h.
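Note: competitive profiling in live THP-1 cells: cysteine peptides tagged with an iodoacetamide desthiobiotin (IA-DTB) probe, intensity after compound treatment relative to DMSO-treated cells.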

As to “TADA3_O75528_255_KSEAQHEQPEDGCPFGALTQR (UniProt O75528)”, the “probe-labelled cysteine peptide fold change” value (10 µM) was -0.119 and the “probe-labelled cysteine peptide fold change” value (50 µM) is -0.378.
In the same order, the values of “TAGLN2_P37802_124_NMACVQR (UniProt P37802)” are 0.191 and 0.0769.
Taken in the same sequence, the figures for “TACC3_Q9Y6A5_459_LGQPAAEQLHAGPATEEPGPCLSQQLHSASAEDTPVVQLAAETPTAESK (UniProt Q9Y6A5)” were -0.113 and -0.257.
Consider “TCEA2_Q15560_163_EMLTAALQTDHDHVAIGADCER (UniProt Q15560)”, for which the “probe-labelled cysteine peptide fold change” value by setting is: (10 µM) 0.0225; (50 µM) -0.12.
As to “TBC1D5_Q92609_706_QASSETPGCTDR (UniProt Q92609)”, the “probe-labelled cysteine peptide fold change” value (10 µM) was -0.154 and the “probe-labelled cysteine peptide fold change” value (50 µM) is -0.0762.
Taken in the same sequence, the figures for “TBC1D1_Q86TI0_604_ANTLSHFPIECQEPPQPAR (UniProt Q86TI0)” were -0.0467 and -0.164.
Taken in the same sequence, the figures for “TAF2_Q6P1X5_690_LALTDILEQEQCFYR (UniProt Q6P1X5)” were -0.214 and 0.132.
In the same order, the values of “TANC1_Q9C0D5_985_LVCLLTK (UniProt Q9C0D5)” are -0.179 and -0.214.
Regarding “TBL2_Q9Y4P3_391_FLASCGDR (UniProt Q9Y4P3)”, the “probe-labelled cysteine peptide fold change” value is, setting by setting: (10 µM) -0.0331; (50 µM) 0.114.
Taken in the same sequence, the figures for “TACC1_O75410_794_ICDELIAK (UniProt O75410)” were 0.223 and 0.161.

These data come from the supplement of paper PMC12067093, “Discovery and optimisation of a covalent ligand for TRIM25 and its application to targeted protein ubiquitination” (Chemical Science, 2025).
